Assay results from the supplement of paper PMC10849652.
This is one part of the list.

Amino acid sequences for entries named in this document (tags omitted). A change or cut given only in a name is not applied to a line headed by its entry.
UniProt P56134: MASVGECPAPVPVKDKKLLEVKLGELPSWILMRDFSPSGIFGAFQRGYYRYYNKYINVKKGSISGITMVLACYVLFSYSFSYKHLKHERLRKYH
UniProt Q9Y5K8, whole entry, looked up: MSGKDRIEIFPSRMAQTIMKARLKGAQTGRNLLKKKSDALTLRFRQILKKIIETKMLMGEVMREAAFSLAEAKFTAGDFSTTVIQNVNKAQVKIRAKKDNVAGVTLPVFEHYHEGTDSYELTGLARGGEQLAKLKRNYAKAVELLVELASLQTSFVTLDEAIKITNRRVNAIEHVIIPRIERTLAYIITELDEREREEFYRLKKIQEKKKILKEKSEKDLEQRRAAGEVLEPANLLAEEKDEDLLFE
UniProt Q8N2F6: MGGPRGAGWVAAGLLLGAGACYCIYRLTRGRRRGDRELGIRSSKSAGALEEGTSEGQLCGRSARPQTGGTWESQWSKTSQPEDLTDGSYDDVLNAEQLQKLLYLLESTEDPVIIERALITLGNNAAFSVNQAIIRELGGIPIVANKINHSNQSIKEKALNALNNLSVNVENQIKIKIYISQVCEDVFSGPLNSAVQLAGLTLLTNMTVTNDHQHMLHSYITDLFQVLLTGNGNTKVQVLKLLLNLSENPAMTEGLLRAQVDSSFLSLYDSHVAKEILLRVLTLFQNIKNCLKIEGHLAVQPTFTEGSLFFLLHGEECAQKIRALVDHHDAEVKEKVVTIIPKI
UniProt P21283, whole entry, looked up: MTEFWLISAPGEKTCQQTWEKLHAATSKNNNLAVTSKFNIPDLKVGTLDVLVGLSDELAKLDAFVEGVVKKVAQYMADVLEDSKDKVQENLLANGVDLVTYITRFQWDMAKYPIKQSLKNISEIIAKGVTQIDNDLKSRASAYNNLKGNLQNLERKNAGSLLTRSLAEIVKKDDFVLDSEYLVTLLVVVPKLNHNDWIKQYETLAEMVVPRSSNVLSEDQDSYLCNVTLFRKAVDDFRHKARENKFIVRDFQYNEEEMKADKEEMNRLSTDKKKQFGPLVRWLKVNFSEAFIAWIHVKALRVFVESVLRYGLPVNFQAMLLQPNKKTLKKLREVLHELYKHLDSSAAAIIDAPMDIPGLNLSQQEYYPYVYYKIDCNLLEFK
UniProt O75787, whole entry, looked up: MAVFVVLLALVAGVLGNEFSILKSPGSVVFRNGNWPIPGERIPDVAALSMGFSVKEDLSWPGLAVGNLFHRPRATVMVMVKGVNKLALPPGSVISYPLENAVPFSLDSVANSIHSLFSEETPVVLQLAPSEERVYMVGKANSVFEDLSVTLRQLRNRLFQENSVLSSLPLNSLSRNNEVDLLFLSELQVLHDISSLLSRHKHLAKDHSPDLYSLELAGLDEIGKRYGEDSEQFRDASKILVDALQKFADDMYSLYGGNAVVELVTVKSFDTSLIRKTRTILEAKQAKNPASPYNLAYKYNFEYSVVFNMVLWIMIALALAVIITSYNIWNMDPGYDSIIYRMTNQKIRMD
UniProt O75947: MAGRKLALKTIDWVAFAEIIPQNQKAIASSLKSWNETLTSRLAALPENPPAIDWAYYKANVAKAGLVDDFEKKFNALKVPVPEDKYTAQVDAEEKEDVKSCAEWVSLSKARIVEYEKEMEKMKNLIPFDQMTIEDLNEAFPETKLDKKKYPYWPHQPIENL
UniProt Q9NQ11: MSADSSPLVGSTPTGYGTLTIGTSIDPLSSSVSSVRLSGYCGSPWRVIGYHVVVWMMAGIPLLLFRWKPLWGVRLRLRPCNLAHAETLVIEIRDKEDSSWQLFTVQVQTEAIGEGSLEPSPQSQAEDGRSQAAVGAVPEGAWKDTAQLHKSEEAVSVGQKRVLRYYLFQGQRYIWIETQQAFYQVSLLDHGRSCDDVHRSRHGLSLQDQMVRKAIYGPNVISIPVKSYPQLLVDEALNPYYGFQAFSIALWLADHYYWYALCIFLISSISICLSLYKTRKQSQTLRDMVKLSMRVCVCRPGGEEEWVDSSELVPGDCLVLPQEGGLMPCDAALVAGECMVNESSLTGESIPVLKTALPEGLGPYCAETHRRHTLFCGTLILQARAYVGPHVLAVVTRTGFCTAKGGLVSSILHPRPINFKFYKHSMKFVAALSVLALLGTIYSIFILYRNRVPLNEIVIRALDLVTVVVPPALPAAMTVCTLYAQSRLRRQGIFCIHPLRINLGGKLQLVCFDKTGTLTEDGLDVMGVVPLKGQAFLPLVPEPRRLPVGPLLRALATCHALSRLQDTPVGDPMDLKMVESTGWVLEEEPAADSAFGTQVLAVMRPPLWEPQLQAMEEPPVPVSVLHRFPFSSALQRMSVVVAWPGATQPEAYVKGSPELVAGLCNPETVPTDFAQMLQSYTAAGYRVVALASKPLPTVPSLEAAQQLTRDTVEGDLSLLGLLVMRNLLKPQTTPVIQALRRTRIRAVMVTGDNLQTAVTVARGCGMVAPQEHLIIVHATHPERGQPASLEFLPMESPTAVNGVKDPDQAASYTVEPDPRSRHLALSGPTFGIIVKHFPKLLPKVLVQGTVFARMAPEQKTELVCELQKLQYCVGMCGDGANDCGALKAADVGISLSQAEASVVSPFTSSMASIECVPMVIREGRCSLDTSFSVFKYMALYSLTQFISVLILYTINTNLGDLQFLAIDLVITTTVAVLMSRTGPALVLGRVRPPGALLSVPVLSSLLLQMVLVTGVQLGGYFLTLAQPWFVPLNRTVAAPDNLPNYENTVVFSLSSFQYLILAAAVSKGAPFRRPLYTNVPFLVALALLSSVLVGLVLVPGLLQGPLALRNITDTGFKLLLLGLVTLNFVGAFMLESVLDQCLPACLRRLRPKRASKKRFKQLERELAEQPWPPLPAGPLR
UniProt P36543, whole entry, looked up: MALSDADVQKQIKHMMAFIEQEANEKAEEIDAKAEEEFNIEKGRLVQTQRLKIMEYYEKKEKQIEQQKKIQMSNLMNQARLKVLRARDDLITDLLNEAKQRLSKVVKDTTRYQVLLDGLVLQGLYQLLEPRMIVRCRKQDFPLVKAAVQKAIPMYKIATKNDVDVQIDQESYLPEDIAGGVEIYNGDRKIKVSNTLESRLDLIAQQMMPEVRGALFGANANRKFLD
UniProt Q9Y294, whole entry, looked up: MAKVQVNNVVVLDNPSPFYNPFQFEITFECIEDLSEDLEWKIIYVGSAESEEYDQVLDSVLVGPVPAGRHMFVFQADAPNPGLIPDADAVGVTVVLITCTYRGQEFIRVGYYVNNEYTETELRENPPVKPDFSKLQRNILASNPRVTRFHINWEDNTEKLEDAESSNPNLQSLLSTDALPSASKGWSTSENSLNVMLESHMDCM
UniProt Q7L266: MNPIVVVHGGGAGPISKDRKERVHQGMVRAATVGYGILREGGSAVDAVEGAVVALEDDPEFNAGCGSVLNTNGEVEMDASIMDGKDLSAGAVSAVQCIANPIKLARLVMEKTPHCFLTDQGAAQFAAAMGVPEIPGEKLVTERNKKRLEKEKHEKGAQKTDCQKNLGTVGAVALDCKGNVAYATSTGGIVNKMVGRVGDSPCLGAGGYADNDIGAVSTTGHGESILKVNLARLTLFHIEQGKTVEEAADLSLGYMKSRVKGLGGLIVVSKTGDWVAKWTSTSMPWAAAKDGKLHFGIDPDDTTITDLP
UniProt P20020: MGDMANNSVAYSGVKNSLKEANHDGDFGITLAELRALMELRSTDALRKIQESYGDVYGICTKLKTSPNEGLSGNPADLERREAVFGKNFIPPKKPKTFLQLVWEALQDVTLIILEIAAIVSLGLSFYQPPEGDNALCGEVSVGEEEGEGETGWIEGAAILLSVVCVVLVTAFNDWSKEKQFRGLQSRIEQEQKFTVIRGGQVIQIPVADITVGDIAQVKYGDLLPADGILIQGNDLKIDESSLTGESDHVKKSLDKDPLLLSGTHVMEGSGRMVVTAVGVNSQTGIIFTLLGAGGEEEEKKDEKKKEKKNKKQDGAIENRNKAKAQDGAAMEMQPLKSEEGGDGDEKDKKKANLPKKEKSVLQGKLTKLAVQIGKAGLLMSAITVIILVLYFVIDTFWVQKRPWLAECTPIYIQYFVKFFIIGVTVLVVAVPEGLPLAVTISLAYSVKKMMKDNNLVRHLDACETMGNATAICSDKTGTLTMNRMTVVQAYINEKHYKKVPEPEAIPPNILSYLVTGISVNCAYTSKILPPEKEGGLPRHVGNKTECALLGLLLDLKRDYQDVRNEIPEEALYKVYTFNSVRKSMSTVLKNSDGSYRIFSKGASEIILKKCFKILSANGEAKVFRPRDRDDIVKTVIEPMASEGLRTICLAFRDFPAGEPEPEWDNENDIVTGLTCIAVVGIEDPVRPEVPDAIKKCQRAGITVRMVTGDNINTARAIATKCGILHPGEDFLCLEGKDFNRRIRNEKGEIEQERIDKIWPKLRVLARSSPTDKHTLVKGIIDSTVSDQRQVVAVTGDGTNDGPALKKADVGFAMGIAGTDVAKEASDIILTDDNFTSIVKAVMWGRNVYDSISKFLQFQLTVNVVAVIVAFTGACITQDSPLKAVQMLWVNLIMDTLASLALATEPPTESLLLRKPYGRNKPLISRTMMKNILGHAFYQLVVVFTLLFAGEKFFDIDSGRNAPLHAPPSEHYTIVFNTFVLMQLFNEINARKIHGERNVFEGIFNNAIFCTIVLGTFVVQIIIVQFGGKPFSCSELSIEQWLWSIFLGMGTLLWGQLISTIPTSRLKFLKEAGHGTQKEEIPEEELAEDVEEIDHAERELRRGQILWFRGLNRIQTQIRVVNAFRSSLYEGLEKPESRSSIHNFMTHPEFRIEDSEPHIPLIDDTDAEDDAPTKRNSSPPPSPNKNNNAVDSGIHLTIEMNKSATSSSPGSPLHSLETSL
UniProt Q93084: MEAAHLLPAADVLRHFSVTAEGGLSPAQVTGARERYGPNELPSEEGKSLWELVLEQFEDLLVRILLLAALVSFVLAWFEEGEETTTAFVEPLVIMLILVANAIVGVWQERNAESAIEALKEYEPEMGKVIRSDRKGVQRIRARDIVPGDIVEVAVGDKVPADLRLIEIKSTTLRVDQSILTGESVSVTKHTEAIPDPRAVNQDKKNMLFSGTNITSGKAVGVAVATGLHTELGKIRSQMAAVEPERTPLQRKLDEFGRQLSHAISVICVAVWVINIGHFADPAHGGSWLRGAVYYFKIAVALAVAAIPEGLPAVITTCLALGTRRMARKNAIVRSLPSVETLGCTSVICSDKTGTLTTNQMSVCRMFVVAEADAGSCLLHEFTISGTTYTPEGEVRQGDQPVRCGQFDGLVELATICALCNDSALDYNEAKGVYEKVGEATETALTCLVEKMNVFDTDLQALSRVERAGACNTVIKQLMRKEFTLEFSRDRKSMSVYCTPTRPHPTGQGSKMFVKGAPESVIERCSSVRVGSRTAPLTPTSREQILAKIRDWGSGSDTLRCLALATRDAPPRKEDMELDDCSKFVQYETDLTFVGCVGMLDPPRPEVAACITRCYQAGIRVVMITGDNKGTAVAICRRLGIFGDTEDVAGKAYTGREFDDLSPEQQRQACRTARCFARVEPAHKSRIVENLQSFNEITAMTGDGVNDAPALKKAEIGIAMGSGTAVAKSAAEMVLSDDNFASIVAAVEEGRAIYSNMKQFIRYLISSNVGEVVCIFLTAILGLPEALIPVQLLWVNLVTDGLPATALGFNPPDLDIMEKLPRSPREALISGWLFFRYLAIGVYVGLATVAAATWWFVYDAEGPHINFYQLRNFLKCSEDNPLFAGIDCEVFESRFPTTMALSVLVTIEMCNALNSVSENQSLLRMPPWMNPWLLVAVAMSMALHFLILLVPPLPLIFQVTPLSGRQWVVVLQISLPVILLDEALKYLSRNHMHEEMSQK
UniProt O95376: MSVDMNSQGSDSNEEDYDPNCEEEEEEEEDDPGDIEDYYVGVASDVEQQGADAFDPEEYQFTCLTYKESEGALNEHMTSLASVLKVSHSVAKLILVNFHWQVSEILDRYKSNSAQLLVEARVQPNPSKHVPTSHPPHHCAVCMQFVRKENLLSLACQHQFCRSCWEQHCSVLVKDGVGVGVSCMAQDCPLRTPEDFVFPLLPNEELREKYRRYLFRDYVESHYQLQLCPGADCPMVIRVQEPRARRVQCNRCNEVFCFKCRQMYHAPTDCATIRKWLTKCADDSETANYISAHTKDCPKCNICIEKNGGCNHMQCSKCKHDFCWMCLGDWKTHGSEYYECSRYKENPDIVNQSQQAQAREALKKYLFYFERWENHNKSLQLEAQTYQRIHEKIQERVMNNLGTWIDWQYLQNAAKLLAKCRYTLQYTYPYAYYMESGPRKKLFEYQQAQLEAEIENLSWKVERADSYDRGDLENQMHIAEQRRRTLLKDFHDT
UniProt Q96IX5: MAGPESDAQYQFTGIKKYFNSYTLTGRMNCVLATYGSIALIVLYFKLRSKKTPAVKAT
UniProt P56378: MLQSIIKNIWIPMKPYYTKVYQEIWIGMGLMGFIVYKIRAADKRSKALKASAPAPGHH
UniProt P18846: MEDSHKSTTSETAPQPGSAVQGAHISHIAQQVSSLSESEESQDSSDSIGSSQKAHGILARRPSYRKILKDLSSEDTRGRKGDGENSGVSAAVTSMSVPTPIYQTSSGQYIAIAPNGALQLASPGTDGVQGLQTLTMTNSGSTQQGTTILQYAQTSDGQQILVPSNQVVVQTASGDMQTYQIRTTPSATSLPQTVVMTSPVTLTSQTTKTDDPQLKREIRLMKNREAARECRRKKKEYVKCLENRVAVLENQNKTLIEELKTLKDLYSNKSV

Tests used:
Assay in all cases: log2 fold change, soluble protein after heating vs DMSO (PISA); higher = thermal stabilisation; K562 cells, 10 uM, 30 min; active = over 0.2 and 3.5 SD of the protein, either way, in both replicates (recomputed)
[1] = compound: C#Cc1cccc(Nc2ncnc3cc(OCCOC)c(OCCOC)cc23)c1 [erlotinib]
In short: (§1)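 For each measurement, 10 μM compound was applied for 30 min to K562 cells at 2×10^6 cells/mL. Aliquots were heated for 3 min across 48°C-58°C, pooled, and extracted in PBS with 0.5% NP-40 at 4°C; the supernatant after 21,000xg for 90 min was soluble protein. This was quantified by TMTpro 16plex LC-MS/MS with channel sums equalised, and thermal stability was reported relative to control samples from duplicates, on a log2 fold-change scale.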

[2] = compound: C/C(=N\NC(=O)C1=CC(=CC=C1)S(=O)(=O)N2CCOCC2)/C3=C(C=CC(=C3)Cl)O
In short: as §1

[3] = compound: C1=CC(=C(C=C1Cl)C2=NC3=NC=CN=C3C(=N2)NC4=CC=NC=C4)F
In short: as §1

[4] = compound: C1=CC(=CC=C1C2=NC3=C(N2)C=C(C=C3)C(=O)N)OC4=CC=C(C=C4)Cl
In short: as §1

[5] = compound: C1=CC2=C(C=CC(=C2)/C=C\3/C(=O)NC(=NCC4=CC=CS4)S3)N=C1
In short: as §1

[6] = compound: C1=CC2=NC=CN=C2C=C1/C=C/3\C(=O)NC(=O)S3
In short: as §1

[7] = compound: C1=CC=C(C=C1)C2=NC(=C(N2)C3=CC=NC=C3)C4=CC(=C(C=C4)Cl)O
In short: as §1

[8] = compound: C1=CC=C2C(=C1)C3=NNC4=CC=CC(=C43)C2=O
In short: as §1

[9] = compound: C1CCN(C1)C(=O)NC2=CC=CC(=C2)NC3=NC=C(C(=N3)NCCC4=CN=CN4)Br
In short: as §1

[10] = compound: C1CN(CCC1(CC2=CC=C(C=C2)Cl)N)C3=NC=NC4=C3C=CN4
In short: as §1

Measured: log2 fold change

ATF3 (UniProt P18847)
inactive: [1] -0.12 | [2] 0.067 | [3] 0 | [4] 0.504 | [5] 0.026 | [6] 0.021 | [7] -0.233 | [8] -0.024 | [9] 0.191 | [10] -0.079

ATP5MF (UniProt P56134)
inactive: [1] 0.036 | [2] -0.008 | [3] 0.008 | [4] 0.005 | [5] 0.004 | [6] 0.047 | [7] -0.009 | [8] -0.045 | [9] 0.02 | [10] 0.025

ARMC8 (UniProt Q8IUR7)
inactive: [1] -0.079 | [2] -0.029 | [3] -0.029 | [4] 0.027 | [5] -0.047 | [6] 0.013 | [7] 0.051 | [8] -0.005 | [9] -0.002 | [10] -0.027

ATP5PB (UniProt P24539)
inactive: [1] -0.039 | [2] -0.007 | [3] 0.069 | [4] 0 | [5] -0.02 | [6] 0.026 | [7] 0.011 | [8] 0.028 | [9] 0.015 | [10] 0.026

ATL3 (UniProt Q6DD88)
inactive: [1] 0.024 | [2] 0.077 | [3] 0.074 | [4] -0.019 | [5] -0.013 | [6] 0.013 | [7] 0.012 | [8] 0.012 | [9] -0.006 | [10] 0.035

ATP6V1D (UniProt Q9Y5K8)
inactive: [1] -0.019 | [2] -0.016 | [3] -0.002 | [4] 0.018 | [5] 0.04 | [6] 0.043 | [7] -0.05 | [8] -0.002 | [9] 0.017 | [10] 0.003

ASL (UniProt P04424)
inactive: [1] 0.036 | [2] -0.018 | [3] 0.049 | [4] 0.002 | [5] 0.01 | [6] -0.011 | [7] 0.015 | [8] 0 | [9] -0.002 | [10] 0.044

ATAD3A isoform 2 (UniProt Q9NVI7)
inactive: [1] -0.036 | [2] 0.02 | [3] -0.045 | [4] 0.006 | [5] -0.038 | [6] -0.013 | [7] -0.04 | [8] 0.017 | [9] 0.037 | [10] -0.101

ATOX1 (UniProt O00244)
inactive: [1] -0.033 | [2] 0.307 | [3] 0.141 | [4] 0.068 | [5] -0.089 | [6] 0.074 | [7] 0.242 | [8] 0.112 | [9] -0.061 | [10] 0.024

ARPC4 isoform 3 (UniProt P59998)
inactive: [1] 0.011 | [2] 0.012 | [3] 0.043 | [4] -0.115 | [5] -0.009 | [6] 0.019 | [7] 0.014 | [8] 0.042 | [9] -0.005 | [10] -0.049

ATG2B (UniProt Q96BY7)
inactive: [1] -0.003 | [2] 0 | [3] 0.006 | [4] 0.038 | [5] 0.017 | [6] 0.005 | [7] -0.021 | [8] -0.022 | [9] 0.012 | [10] 0.02

ARMC10 (UniProt Q8N2F6)
inactive: [1] -0.021 | [2] 0.044 | [3] -0.092 | [4] -0.066 | [5] 0.005 | [6] 0.006 | [7] -0.034 | [8] 0.016 | [9] 0.003 | [10] -0.023

ATP6V1C1 (UniProt P21283)
inactive: [1] -0.103 | [2] 0.02 | [3] -0.135 | [4] -0.021 | [5] -0.011 | [6] 0.046 | [7] -0.244 | [8] 0.045 | [9] -0.067 | [10] -0.227

ATP6AP2 (UniProt O75787)
inactive: [1] 0.105 | [2] 0.004 | [3] -0.004 | [4] 0.038 | [5] -0.067 | [6] 0.022 | [7] -0.022 | [8] -0.013 | [9] -0.027 | [10] 0.095

ATP5PD (UniProt O75947)
inactive: [1] -0.04 | [2] -0.004 | [3] 0.083 | [4] -0.005 | [5] -0.002 | [6] 0.013 | [7] 0.02 | [8] 0.008 | [9] -0.006 | [10] 0.02

ATP13A2 (UniProt Q9NQ11)
inactive: [1] 0.047 | [2] 0.012 | [3] 0.011 | [4] 0.096 | [5] 0.024 | [6] 0.099 | [7] 0.01 | [8] -0.042 | [9] 0.035 | [10] 0.082

ATP6V1E1 (UniProt P36543)
inactive: [1] 0.019 | [2] 0.029 | [3] -0.073 | [4] -0.003 | [5] 0.034 | [6] 0.016 | [7] -0.086 | [8] 0.042 | [9] -0.01 | [10] -0.102

ATG16L1 (UniProt Q676U5)
inactive: [1] 0.017 | [2] 0.107 | [3] 0.014 | [4] -0.014 | [5] 0.021 | [6] 0.06 | [7] 0.002 | [8] -0.007 | [9] -0.027 | [10] 0.016

ASF1A (UniProt Q9Y294)
inactive: [1] 0.055 | [2] 0.007 | [3] 0.143 | [4] 0.004 | [5] -0.009 | [6] 0.048 | [7] -0.001 | [8] -0.015 | [9] 0.034 | [10] -0.032

ASRGL1 (UniProt Q7L266)
inactive: [1] 0.024 | [2] -0.021 | [3] 0.042 | [4] 0.009 | [5] 0.014 | [6] -0.011 | [7] 0 | [8] 0.004 | [9] -0.003 | [10] 0.018

ATP2B1 isoform 1 (UniProt P20020)
inactive: [1] 0.027 | [2] 0.019 | [3] 0.03 | [4] -0.004 | [5] 0.011 | [6] 0.004 | [7] 0.001 | [8] -0.069 | [9] -0.008 | [10] 0.115

ATP2A3 isoform 2 (UniProt Q93084)
inactive: [1] -0.002 | [2] -0.002 | [3] 0.053 | [4] -0.002 | [5] -0.014 | [6] 0.014 | [7] -0.003 | [8] -0.04 | [9] -0.025 | [10] 0.059

ARIH2 (UniProt O95376)
inactive: [1] -0.015 | [2] -0.059 | [3] 0.053 | [4] 0.006 | [5] -0.089 | [6] 0.044 | [7] 0.015 | [8] -0.062 | [9] -0.018 | [10] 0.051

ATP5F1D (UniProt P30049)
inactive: [1] -0.058 | [2] 0.033 | [3] 0.084 | [4] -0.118 | [5] 0.005 | [6] 0.043 | [7] -0.008 | [8] 0.024 | [9] 0 | [10] -0.01

ATP6V1F isoform 2 (UniProt Q16864)
inactive: [1] -0.049 | [2] -0.017 | [3] 0.232 | [4] 0.077 | [5] 0.04 | [6] 0.189 | [7] -0.017 | [8] -0.024 | [9] -0.066 | [10] -0.222

ATP5MD (UniProt Q96IX5)
inactive: [1] -0.076 | [2] 0.114 | [3] 0.11 | [4] 0.007 | [5] -0.039 | [6] -0.085 | [7] -0.046 | [8] -0.021 | [9] 0.077 | [10] 0.126

ATP13A1 (UniProt Q9HD20)
inactive: [1] -0.023 | [2] 0.06 | [3] 0.037 | [4] 0.005 | [5] 0.024 | [6] 0.033 | [7] -0.007 | [8] -0.005 | [9] -0.017 | [10] 0.018

ATP5MPL (UniProt P56378)
inactive: [1] -0.027 | [2] 0 | [3] 0.232 | [4] 0.025 | [5] 0.007 | [6] 0.032 | [7] 0.052 | [8] 0.063 | [9] 0.013 | [10] 0.036

Quoted from the entries so far (2 entries):
ATP5MD (UniProt Q96IX5)
inactive: [1] -0.076 | [2] 0.114 | [3] 0.11 | [4] 0.007 | [5] -0.039 | [6] -0.085 | [7] -0.046 | [8] -0.021 | [9] 0.077 | [10] 0.126

ATP13A1 (UniProt Q9HD20)
inactive: [1] -0.023 | [2] 0.06 | [3] 0.037 | [4] 0.005 | [5] 0.024 | [6] 0.033 | [7] -0.007 | [8] -0.005 | [9] -0.017 | [10] 0.018

(next part)

ASMTL (UniProt O95671)
inactive: [1] 0.223 | [2] 0.059 | [3] 0.223 | [4] -0.075 | [5] 0.067 | [6] -0.167 | [7] -0.239 | [8] 0.025 | [9] 0.071 | [10] -0.219

ARPIN isoform 2 (UniProt Q7Z6K5)
inactive: [1] 0.087 | [2] 0.25 | [4] -0.273 | [5] -0.244 | [6] 0.246 | [7] -0.056 | [8] 0.057 | [9] 0.043 | [10] -0.028

ATF1 (UniProt P18846)
inactive: [1] -0.058 | [2] 0.244 | [3] 0.129 | [4] -0.054 | [5] -0.221 | [6] 0.023 | [8] 0.039 | [9] -0.117 | [10] -0.024
